Assay results: patent US20190144558A1
Results are given in words; binding and its absence hold for the method and conditions named. Some results given as binding are weak or reduced against the parent protein; the word gives no strength.

The chains behind the UniProt entries cited, without tags or fusion partners. Where a name states a change or a piece, a line headed by the entry shows the natural chain unless it says otherwise. A line that says so, or that is headed by a name, gives the form on record, which may keep a tag or linker.
UniProt P10721: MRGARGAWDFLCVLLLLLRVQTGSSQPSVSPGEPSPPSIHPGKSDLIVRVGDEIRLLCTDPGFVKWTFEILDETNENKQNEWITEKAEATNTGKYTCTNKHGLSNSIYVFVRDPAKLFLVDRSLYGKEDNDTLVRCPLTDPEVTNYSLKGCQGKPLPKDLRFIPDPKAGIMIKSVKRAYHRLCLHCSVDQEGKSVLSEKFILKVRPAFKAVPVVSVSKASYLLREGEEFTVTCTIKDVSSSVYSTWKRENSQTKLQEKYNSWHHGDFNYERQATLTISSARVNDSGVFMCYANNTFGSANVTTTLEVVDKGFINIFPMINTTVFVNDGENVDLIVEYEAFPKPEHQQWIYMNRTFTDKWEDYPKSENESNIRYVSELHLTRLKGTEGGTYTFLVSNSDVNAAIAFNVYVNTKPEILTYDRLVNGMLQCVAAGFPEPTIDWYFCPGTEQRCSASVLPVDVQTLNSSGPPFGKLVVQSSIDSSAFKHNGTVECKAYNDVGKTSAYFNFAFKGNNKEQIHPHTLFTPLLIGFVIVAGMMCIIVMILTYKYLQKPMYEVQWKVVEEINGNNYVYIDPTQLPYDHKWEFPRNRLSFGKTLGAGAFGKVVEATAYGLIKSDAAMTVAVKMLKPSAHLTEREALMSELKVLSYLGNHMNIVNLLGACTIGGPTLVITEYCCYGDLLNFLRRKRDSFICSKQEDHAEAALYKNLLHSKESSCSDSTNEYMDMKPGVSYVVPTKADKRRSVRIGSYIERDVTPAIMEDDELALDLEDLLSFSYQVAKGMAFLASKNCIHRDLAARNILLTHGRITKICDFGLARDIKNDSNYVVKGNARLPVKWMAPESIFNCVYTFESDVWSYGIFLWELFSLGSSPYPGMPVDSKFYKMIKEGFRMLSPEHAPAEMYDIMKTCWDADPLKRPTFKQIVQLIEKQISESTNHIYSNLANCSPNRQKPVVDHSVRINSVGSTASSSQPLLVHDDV
rhesus CD117 ectodomain (F6V858, form named): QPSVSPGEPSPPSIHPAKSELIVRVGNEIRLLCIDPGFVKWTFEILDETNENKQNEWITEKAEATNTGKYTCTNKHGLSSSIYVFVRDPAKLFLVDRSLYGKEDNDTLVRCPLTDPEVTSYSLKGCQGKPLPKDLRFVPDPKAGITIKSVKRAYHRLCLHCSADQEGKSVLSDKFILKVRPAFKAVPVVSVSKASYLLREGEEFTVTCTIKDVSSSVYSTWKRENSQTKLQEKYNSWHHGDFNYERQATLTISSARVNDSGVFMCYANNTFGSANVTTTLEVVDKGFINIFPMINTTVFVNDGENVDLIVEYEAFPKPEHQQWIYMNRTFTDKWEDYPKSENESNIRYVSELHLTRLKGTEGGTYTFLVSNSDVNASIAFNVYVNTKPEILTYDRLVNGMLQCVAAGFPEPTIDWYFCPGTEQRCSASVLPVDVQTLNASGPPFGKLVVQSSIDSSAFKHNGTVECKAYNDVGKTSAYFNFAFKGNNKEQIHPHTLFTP

Tests used:
[1] = target: human CD117 isoform 1 (human) (UniProt P10721); assay: method not described
[2] = target: human CD117 isoform 2 (human) (UniProt P10721); assay: method not described
[3] = target: rhesus CD117 ectodomain (rhesus) (UniProt F6V858); assay: BLI
[4] = target: human CD117 isoform 1 (human) (UniProt P10721); assay: antibodies from yeast library screen; method not given
[5] = target: rhesus CD117 ectodomain (rhesus) (UniProt F6V858); assay: as above
[6] = target: human CD117 isoform 2 (human) (UniProt P10721); assay: as above
[7] = target: rhesus CD117 ectodomain (rhesus) (UniProt F6V858); assay: yeast display screen / follow-up characterisation

Measured: binding

B1: Antibody 57 (antibody, human IgG1, kappa, V domains shown)
VH: QVQLVQSGAEVKKPGSSVKVSCKASGGTFSLYAISWVRQAPGQGLEWMGGIIPHFGLANYAQKFQGRVTITADESTSTAYMELSSLRSEDTAVYYCARGGLDTDEFDLWGRGTLVTVSS
VL: DIQMTQSPSSLSASVGDRVTITCRASQSINSYLNWYQQKPGKAPKLLIYAASSLQSGVPSRFSGSGSGTDFTLTISSLQPEDFATYYCQQGVSDITFGGGTKVEIKR
not listed: [7]
binds: all other assays above

B2: Antibody 55 (antibody, human IgG1, kappa, V domains shown)
VH: QVQLVQSGAEVKKPGSSVKVSCKASGGTFRIYAISWVRQAPGQGLEWMGGIIPDFGVANYAQKFQGRVTITADESTSTAYMELSSLRSEDTAVYYCARGGLDTDEFDLWGRGTLVTVSS
VL: DIQMTQSPSSLSASVGDRVTITCRASQSINSYLNWYQQKPGKAPKLLIYAASSLQSGVPSRFSGSGSGTDFTLTISSLQPEDFATYYCQQGVSDITFGGGTKVEIKR
binds: all assays above

B3: Antibody 61 (antibody, human IgG1, kappa, V domains shown)
VH: EVQLLESGGGLVQPGGSLRLSCAASGFTFSSYVMIWVRQAPGKGLEWVSSISGDSVTTYYADSVKGRFTISRDNSKNTLYLQMNSLRAEDTAVYYCAKGPPTYHTNYYYMDVWGKGTTVTVSS
VL: DIQMTQSPSSVSASVGDRVTITCRASQGISSWLAWYQQKPGKAPKLLIYAASSLQSGVPSRFSGSGSGTDFTLTISSLQPEDFATYYCQQTNSFPYTFGGGTKVEIKR
not listed: [7]
binds: all other assays above
